Test results: the supplement of paper PMC12819154, “High-throughput peptide-centric local stability assay extends protein–ligand identification to membrane proteins, tissues and bacteria” (Nature Structural & Molecular Biology, 2025)
The list shows a part of the results. Small differences around the control level are noise.

By UniProt entry, the sequences of proteins in these tests, tags left out. Where a name states a change or a piece, a line headed by the entry shows the natural chain unless it says otherwise.
UniProt Q9NX40: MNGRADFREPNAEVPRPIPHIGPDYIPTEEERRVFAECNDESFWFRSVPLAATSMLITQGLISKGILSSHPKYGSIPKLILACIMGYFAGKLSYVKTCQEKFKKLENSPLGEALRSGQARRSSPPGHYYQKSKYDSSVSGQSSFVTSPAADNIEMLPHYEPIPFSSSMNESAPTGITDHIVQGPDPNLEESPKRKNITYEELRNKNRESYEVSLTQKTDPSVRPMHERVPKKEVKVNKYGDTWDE
UniProt Q9UH36: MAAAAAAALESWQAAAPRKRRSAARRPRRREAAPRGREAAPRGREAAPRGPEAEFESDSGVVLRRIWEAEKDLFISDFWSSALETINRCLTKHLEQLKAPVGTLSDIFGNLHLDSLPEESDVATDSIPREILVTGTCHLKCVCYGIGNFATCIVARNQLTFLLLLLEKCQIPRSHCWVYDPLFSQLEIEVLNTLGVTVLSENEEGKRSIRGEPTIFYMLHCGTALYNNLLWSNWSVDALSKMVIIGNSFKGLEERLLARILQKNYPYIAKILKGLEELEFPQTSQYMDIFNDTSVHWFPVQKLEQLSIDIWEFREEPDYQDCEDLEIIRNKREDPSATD
UniProt Q9UDV7: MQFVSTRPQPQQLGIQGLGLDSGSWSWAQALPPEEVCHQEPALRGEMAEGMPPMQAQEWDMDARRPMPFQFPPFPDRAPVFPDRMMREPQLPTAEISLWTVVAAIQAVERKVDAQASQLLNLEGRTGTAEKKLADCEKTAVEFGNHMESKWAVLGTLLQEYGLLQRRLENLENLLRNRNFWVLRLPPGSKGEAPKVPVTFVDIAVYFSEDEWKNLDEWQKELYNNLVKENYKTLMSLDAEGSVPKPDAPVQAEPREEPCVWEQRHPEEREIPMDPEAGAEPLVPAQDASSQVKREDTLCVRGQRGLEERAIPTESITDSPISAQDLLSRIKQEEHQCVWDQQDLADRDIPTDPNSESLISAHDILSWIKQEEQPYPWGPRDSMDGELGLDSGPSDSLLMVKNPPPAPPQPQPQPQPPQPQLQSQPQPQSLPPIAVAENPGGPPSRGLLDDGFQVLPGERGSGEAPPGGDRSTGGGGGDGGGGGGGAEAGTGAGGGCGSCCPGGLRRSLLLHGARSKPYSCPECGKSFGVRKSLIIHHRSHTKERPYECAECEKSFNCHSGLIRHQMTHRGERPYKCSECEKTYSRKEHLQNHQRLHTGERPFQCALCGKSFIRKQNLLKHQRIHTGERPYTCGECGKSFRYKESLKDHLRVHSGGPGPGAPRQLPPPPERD
UniProt Q9UBU9: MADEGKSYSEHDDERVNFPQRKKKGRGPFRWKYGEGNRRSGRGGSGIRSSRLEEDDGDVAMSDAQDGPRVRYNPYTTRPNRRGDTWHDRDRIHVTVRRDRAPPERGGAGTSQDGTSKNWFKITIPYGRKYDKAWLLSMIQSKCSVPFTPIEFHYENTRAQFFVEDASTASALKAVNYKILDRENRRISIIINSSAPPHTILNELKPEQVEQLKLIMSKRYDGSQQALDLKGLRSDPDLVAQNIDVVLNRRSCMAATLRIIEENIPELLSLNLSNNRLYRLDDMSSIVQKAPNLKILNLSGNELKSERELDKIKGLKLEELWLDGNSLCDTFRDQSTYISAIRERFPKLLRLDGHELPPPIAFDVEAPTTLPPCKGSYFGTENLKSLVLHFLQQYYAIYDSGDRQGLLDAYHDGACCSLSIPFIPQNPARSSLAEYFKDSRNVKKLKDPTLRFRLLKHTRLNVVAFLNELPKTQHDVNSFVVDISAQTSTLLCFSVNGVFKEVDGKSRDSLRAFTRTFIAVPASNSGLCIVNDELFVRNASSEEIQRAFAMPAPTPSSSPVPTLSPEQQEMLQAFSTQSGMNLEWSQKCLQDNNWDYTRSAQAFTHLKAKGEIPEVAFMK
UniProt Q9P2N2: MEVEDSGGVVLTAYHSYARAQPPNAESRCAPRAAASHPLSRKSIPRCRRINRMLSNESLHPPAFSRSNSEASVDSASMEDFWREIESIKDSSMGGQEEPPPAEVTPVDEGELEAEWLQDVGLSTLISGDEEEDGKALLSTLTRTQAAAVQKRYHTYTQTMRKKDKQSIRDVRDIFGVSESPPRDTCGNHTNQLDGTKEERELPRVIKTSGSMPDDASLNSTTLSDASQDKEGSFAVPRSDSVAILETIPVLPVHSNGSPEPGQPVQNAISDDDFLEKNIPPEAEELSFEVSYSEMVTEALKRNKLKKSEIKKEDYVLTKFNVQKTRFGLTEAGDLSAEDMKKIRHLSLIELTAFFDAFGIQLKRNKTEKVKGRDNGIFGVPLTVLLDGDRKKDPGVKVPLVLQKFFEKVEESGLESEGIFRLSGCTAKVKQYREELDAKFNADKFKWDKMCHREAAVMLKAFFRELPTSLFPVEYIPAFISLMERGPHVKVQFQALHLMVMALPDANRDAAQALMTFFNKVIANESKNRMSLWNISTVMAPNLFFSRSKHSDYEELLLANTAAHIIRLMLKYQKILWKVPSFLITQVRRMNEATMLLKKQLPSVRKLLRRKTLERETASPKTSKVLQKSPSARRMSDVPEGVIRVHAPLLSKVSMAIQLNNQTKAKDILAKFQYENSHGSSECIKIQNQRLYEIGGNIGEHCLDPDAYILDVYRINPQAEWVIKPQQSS
UniProt Q9P0R6: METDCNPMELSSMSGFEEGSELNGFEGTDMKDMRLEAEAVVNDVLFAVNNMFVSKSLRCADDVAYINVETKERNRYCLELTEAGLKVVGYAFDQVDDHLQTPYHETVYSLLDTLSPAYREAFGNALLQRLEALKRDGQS
UniProt Q9P2P5: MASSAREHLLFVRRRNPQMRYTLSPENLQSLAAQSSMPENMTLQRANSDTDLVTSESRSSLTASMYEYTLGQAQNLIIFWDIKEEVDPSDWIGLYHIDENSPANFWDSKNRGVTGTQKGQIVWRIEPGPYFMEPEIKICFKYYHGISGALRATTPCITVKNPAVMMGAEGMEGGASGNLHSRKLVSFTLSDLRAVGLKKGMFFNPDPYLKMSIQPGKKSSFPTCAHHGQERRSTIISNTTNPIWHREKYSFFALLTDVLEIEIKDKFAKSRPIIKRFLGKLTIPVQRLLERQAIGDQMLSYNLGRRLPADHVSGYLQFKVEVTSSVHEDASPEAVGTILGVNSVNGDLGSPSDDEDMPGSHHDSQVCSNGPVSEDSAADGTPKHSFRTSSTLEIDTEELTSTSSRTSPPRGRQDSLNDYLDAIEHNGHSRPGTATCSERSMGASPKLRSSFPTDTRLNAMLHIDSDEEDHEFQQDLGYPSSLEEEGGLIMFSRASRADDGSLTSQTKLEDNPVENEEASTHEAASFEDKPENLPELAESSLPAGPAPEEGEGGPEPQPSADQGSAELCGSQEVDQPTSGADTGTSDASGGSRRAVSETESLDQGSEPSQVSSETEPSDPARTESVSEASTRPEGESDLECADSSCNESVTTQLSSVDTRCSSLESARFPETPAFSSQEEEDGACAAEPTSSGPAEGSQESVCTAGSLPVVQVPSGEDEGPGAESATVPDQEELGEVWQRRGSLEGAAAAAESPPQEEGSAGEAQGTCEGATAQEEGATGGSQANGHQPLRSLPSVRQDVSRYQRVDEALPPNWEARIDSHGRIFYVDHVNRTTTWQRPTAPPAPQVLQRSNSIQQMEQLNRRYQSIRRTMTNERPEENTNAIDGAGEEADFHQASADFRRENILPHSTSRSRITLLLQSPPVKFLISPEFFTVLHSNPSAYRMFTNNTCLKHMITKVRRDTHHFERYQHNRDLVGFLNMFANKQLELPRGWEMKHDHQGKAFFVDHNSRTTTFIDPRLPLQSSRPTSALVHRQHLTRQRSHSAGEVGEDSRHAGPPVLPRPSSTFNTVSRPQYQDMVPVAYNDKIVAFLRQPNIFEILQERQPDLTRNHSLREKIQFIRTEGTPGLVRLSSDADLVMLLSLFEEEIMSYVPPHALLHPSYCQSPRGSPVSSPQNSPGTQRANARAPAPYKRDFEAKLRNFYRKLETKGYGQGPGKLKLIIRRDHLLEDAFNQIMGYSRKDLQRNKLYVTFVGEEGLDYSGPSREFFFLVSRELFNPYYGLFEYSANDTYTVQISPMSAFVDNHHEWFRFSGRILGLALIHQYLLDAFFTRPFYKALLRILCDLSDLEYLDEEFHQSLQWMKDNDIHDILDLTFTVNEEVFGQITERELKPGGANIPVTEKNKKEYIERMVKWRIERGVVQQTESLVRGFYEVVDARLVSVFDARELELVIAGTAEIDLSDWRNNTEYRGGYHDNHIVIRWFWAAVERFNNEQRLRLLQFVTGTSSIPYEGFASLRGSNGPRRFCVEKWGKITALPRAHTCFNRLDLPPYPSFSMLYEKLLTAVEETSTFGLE
UniProt Q9NXW9: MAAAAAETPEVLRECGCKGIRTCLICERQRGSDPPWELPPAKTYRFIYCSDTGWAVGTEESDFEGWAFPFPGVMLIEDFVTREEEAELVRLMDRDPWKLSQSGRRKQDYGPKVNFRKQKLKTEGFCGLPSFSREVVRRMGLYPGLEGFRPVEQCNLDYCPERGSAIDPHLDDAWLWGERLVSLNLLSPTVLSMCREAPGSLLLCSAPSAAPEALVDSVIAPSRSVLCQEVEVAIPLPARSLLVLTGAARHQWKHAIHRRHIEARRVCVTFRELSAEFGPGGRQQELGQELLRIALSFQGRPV
UniProt Q9NX07: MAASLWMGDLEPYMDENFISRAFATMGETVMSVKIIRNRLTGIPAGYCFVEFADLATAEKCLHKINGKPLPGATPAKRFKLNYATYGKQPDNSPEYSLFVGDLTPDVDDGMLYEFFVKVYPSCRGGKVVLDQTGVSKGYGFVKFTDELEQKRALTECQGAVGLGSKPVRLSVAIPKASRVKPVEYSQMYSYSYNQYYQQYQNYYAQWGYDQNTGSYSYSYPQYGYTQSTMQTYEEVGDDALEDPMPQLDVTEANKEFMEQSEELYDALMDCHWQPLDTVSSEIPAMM
UniProt Q9UBV8: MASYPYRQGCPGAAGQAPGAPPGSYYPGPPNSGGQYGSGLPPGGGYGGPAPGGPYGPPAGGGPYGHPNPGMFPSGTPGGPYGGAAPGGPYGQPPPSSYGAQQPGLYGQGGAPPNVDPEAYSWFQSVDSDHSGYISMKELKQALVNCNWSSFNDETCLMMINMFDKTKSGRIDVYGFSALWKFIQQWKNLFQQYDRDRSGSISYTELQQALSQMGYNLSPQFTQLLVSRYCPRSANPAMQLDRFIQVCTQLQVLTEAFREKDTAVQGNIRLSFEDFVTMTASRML
UniProt Q9UBW8: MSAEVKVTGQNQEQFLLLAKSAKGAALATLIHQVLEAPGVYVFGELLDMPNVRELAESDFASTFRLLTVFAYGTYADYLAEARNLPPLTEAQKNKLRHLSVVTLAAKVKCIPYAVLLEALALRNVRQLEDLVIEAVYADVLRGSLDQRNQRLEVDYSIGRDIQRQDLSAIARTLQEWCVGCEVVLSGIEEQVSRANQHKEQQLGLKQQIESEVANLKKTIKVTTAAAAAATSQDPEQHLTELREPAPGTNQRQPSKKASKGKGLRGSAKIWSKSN
UniProt Q9P0K7: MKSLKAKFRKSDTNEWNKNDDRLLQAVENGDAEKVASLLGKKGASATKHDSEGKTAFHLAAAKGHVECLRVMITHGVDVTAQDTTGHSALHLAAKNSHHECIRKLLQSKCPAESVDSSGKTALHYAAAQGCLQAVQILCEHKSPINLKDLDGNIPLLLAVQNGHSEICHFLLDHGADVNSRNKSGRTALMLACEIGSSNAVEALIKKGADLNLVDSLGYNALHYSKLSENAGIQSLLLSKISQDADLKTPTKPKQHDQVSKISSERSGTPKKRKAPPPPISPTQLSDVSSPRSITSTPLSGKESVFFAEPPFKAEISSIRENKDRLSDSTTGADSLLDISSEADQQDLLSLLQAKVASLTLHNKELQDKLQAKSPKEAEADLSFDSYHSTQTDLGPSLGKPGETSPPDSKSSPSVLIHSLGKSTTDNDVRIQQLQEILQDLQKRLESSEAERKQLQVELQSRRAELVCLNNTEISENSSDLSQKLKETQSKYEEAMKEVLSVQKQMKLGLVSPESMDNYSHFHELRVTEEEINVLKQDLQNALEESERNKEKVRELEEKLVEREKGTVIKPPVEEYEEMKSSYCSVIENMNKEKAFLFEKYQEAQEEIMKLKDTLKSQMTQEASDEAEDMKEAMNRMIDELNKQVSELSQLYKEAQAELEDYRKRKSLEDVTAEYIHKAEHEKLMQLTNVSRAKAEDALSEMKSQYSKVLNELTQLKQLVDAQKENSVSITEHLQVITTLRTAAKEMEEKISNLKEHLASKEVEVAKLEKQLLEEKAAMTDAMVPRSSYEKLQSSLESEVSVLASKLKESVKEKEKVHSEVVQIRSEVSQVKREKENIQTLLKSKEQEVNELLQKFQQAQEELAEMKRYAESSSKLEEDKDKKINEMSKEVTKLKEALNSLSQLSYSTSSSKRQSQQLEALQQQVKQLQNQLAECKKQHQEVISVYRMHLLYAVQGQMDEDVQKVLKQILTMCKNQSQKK

Compound: Cc1nc(Nc2ncc(C(=O)Nc3c(C)cccc3Cl)s2)cc(N2CCN(CCO)CC2)n1 [dasatinib]
Test: log2 fold change of tryptic peptide abundance, ligand vs vehicle (limited proteolysis) (log2 ratio); higher = more trypsin-susceptible (destabilized)
Conditions: ligand concentration: 5 uM; sample: K562 cleared lysate

Row | Target | log2 fold change
1 | OCIAD1 (peptide sequence: NITYEELR, peptide start residue: 196) (UniProt Q9NX40) | 0.0586
2 | CHPF2 (peptide sequence: YCHGGFGYLLSR, peptide start residue: 222) (UniProt Q9P2E5) | 0.592
3 | UniProt Q9NXH8 (peptide sequence: SVLEDSALVLQYHAR, peptide start residue: 213) | 0.121
4 | TJP2 (peptide sequence: SIDQDYER, peptide start residue: 244) (UniProt Q9UDY2) | -0.139
5 | SERGEF (peptide sequence: VTYLSPDAIEDTESQKAMDKER, peptide start residue: 414) (UniProt Q9UGK8) | -0.252
6 | ADD3 (peptide sequence: FRTPSFLK, peptide start residue: 709) (UniProt Q9UEY8) | -0.201
7 | SRRD (peptide sequence: NKREDPSATD, peptide start residue: 330) (UniProt Q9UH36) | -0.0443
8 | COMMD3 (peptide sequence: STLSTYLEDCKFDR, peptide start residue: 81) (UniProt Q9UBI1) | 0.266
9 | TFIP11 (peptide sequence: KDFQYEAMQER, peptide start residue: 741) (UniProt Q9UBB9) | 0.148
10 | UniProt Q9P2Q2 (peptide sequence: NDYDKSPIKPK, peptide start residue: 599) | -0.7
11 | UniProt Q9UDV7 (peptide sequence: KVDAQASQLLNLEGR, peptide start residue: 111) | -0.114
12 | NXF1 (peptide sequence: AKGEIPEVAFMK, peptide start residue: 608) (UniProt Q9UBU9) | 0.691
13 | GRHPR (peptide sequence: ILDAAGANLK, peptide start residue: 67) (UniProt Q9UBQ7) | 0.176
14 | ZNF629 (peptide sequence: GNSYPGAAEGR, peptide start residue: 623) (UniProt Q9UEG4) | -0.183
15 | TERF2IP (peptide sequence: DDGSSMSFYVRPSPAKR, peptide start residue: 24) (UniProt Q9NYB0) | 0.475
16 | SAGE1 (peptide sequence: SMSSWLDKQEDAAVTHSICEER, peptide start residue: 64) (UniProt Q9NXZ1) | 0.776
17 | UniProt Q9UBF8 (peptide sequence: RLSEQLAHTPTAFK, peptide start residue: 509) | -0.472
18 | ARHGAP28 (peptide sequence: SKHSDYEELLLANTAAHIIR, peptide start residue: 548) (UniProt Q9P2N2) | 0.761
19 | MRPL15 (peptide sequence: VSLANLKPNPGSK, peptide start residue: 22) (UniProt Q9P015) | 0.0866

Row | Target | log2 fold change
20 | PHRF1 (peptide sequence: RPVHSSCIPSVLKPVEPSLGLLR, peptide start residue: 401) (UniProt Q9P1Y6) | 0.622
21 | GSKIP (peptide sequence: YCLELTEAGLK, peptide start residue: 76) (UniProt Q9P0R6) | 0.0528
22 | KLHL8 (peptide sequence: WLLANPQHHSK, peptide start residue: 237) (UniProt Q9P2G9) | 0.246
23 | HECW2 (peptide sequence: ENILPHSTSR, peptide start residue: 901) (UniProt Q9P2P5) | -0.425
24 | TRMT1 (peptide sequence: ESENLASGDQPR, peptide start residue: 131) (UniProt Q9NXH9) | 0.173
25 | UniProt Q9UEE5 (peptide sequence: GLSGPCRPPPPPQAR, peptide start residue: 26) | -0.071
26 | ALKBH4 (peptide sequence: ELSAEFGPGGR, peptide start residue: 272) (UniProt Q9NXW9) | 0.133
27 | TRNAU1AP (peptide sequence: VVLDQTGVSK, peptide start residue: 128) (UniProt Q9NX07) | -0.146
28 | RNF14 (peptide sequence: ALEEMESKEWLEK, peptide start residue: 387) (UniProt Q9UBS8) | 0.45
29 | DPP3 (peptide sequence: GDYAPILQK, peptide start residue: 249) (UniProt Q9NY33) | 0.262
30 | HSPBP1 (peptide sequence: YLEAGAAGLR, peptide start residue: 153) (UniProt Q9NZL4) | -0.188
31 | UniProt Q9P0M2 (peptide sequence: SQENEWVK, peptide start residue: 62) | 0.327
32 | LARS (peptide sequence: GKYFVTFPYPYMNGR, peptide start residue: 44) (UniProt Q9P2J5) | 0.104
33 | MED29 (peptide sequence: ESLQTLMK, peptide start residue: 69) (UniProt Q9NX70) | -0.0473
34 | PEF1 (peptide sequence: NLFQQYDRDR, peptide start residue: 188) (UniProt Q9UBV8) | 0.518
35 | LRWD1 (peptide sequence: VSFLLPTLR, peptide start residue: 112) (UniProt Q9UFC0) | -0.118
36 | COPS7A (peptide sequence: QDLSAIAR, peptide start residue: 165) (UniProt Q9UBW8) | -0.265
37 | RAI14 (peptide sequence: EVEVAKLEK, peptide start residue: 762) (UniProt Q9P0K7) | 0.36

Quoted at random: two records from the list
Row | Target | log2 fold change
35 | LRWD1 (peptide sequence: VSFLLPTLR, peptide start residue: 112) (UniProt Q9UFC0) | -0.118
21 | GSKIP (peptide sequence: YCLELTEAGLK, peptide start residue: 76) (UniProt Q9P0R6) | 0.0528
